{"source": "patent US20100197643A1", "about": "“PHYTOCHEMICAL-RICH OILS AND METHODS RELATED THERETO” (priority 2007, published 2010)", "assay": "Phenolic storage stability of açai oil, 10 weeks at 20, 30, 40° C.", "format": "physicochemical", "conditions": "10 weeks at 40° C.", "note": "Some of these results come from one statement about several compounds together.", "data": [{"molecule": "O=C(O)c1ccc(O)c(O)c1", "note": "[protocatechuic acid, 3,4-dihydroxybenzoic acid]", "values": [{"measurement": "decrease / change in concentration after storage", "value": "< 10", "unit": "%"}]}]}
